In article PMC7948397:
These are yes or no findings as the source states them, for the method shown.

The chains behind the UniProt entries cited, without tags or fusion partners. Where a name states a change or a piece, a line headed by the entry shows the natural chain unless it says otherwise.
UniProt P17927: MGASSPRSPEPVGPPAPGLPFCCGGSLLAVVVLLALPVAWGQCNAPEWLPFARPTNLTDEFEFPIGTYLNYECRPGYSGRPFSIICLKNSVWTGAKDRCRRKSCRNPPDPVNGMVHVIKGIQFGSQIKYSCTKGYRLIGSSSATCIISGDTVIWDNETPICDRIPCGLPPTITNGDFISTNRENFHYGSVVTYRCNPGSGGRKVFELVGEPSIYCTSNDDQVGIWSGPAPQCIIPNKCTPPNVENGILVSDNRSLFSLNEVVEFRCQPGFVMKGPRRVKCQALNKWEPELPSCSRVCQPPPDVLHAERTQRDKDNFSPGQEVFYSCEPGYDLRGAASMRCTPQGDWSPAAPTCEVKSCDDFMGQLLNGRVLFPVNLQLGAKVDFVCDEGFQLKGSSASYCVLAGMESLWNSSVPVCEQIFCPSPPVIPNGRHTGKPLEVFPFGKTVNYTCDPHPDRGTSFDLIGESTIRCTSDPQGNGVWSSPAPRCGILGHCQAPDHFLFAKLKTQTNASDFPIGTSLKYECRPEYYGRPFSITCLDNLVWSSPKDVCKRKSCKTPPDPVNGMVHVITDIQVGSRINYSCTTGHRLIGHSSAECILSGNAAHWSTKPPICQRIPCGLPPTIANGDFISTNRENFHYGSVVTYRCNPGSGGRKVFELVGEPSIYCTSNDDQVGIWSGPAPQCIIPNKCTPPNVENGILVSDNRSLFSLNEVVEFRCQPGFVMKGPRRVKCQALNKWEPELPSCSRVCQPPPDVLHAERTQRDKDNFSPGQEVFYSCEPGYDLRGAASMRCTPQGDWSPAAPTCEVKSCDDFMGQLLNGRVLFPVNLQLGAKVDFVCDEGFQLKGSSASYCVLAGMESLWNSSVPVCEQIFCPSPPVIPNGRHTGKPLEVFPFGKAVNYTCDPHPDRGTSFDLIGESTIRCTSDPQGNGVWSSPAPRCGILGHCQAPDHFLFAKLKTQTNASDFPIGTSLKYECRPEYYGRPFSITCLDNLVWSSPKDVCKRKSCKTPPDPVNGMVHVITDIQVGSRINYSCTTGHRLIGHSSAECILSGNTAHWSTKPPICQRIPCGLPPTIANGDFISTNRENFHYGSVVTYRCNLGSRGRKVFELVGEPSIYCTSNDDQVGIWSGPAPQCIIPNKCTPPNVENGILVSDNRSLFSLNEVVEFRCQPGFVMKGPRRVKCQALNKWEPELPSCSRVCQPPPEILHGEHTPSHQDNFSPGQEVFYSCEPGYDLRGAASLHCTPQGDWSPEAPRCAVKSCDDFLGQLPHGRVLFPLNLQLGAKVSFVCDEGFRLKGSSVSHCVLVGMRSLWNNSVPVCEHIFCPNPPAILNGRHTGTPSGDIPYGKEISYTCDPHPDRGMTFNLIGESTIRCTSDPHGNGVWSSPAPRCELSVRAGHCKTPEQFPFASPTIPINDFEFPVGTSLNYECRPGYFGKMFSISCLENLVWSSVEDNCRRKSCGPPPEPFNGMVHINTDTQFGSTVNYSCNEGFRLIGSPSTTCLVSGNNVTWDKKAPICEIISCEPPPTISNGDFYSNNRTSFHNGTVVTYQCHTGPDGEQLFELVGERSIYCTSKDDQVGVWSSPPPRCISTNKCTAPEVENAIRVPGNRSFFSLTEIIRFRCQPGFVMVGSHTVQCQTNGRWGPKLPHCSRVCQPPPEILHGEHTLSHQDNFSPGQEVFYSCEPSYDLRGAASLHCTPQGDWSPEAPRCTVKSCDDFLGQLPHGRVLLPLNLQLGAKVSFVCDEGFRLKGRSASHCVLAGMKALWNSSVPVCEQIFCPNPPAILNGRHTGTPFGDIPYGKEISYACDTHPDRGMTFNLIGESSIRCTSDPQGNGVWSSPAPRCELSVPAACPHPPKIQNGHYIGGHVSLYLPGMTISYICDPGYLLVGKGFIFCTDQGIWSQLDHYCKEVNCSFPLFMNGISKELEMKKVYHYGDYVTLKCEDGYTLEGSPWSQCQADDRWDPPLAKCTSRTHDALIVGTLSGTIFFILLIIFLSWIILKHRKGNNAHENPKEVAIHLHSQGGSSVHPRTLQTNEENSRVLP

Key:
[1] = target: HuCR1(1971), soluble full-length extracellular domain of human complement receptor 1 (LHR-A, -B, -C and -D) (human) (UniProt P17927); test: SEC-MALS; about 20 ug protein on Superdex 200 Increase 5 x 150 mm GL, Dulbecco's PBS, 0.15 ml/min, ambient temperature; both purified
[2] = target: HuCR1(1392)/CSL040, soluble human complement receptor 1 truncated at amino acid 1392 (LHR-A, LHR-B and LHR-C) (human) (UniProt P17927); test: as above

Substance | binding [1] | binding [2]
HuCR1(1971), soluble full-length extracellular domain of human complement receptor 1 (LHR-A, -B, -C and -D) (from UniProt P17927 42-1971) | no binding | 
HuCR1(1392)/CSL040, soluble human complement receptor 1 truncated at amino acid 1392 (LHR-A, LHR-B and LHR-C) (from UniProt P17927 42-1392) |  | no binding
